PubChem BioAssay AID1259254, NCATS | 2017

Assay: 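Genome-wide screen for genes that prevent DNA re-replication in cancer cells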 (primary screen)
Cells: human HCT116 colorectal cancer cells
Reagents: single siRNA against human genes
Time to read-out: 3 days
Measurement: 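Nuclei stained with Hoechst and imaged; cell-cycle phase assigned by DNA content; G2 share scaled per plate, non-targeting siRNA 0%, GMNN siRNA 100%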
Scale: G2 robust z-score: higher = more G2 cells, more excess DNA replication
Hit rule: 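An siRNA counts as active if its G2 robust z-score lies at least 5 MADs above the screen median; here such calls match roughly 38% of GMNN control or more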
The deposit covers about 59,000 reagents; this is a part drawn at random. Over the whole deposit, about 1,550 (2.6%) were called active. 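G2 share is only a proxy for re-replication; each gene was hit by three separate siRNAs, and active genes were retested.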 Entries without a mark were called inactive. The numbers tell different reagents against one gene apart. Not all columns of the deposit are shown. Reagent sequences are not shown. The record does not give: the amount of reagent.

With knock-down of RPL31P13 #1, the screen gave G2 robust z-score 3.73.
After knock-down of RPL31P13 #2 the results were G2 robust z-score -0.23.
RPL31P13 #3 gave G2 robust z-score 1.71.
Silencing of RGS20 #1 came out at: G2 robust z-score -0.185.
With knock-down of RGS20 #2, the record shows G2 robust z-score 2.12.
RGS20 #3 showed G2 robust z-score 0.793.
Against TAGAP #1, the entry reads G2 robust z-score 0.00175.
For TAGAP #2 the deposit lists G2 robust z-score 0.682.
TAGAP #3 scored G2 robust z-score 3.05.
Knock-down of ANKRD33B #1 resulted in: G2 robust z-score 0.454.
For ANKRD33B #2, the values are G2 robust z-score -0.658.
Depletion of ANKRD33B #3 gave: G2 robust z-score 0.652.

Reprinted from the listing, 4 entries:
RGS20 #1 → G2 robust z-score: -0.185
RGS20 #2 → G2 robust z-score: 2.12
RGS20 #3 → G2 robust z-score: 0.793
TAGAP #1 → G2 robust z-score: 0.00175

Continued.
QTRT2 #1 gave G2 robust z-score 1.1.
Against QTRT2 #2, the values are G2 robust z-score -1.31.
QTRT2 #3 showed G2 robust z-score 0.0656.
After knock-down of NAP1L2 #1, the screen gave G2 robust z-score 0.835.
With knock-down of NAP1L2 #2 the results were G2 robust z-score 0.416.
Knock-down of NAP1L2 #3 gave: G2 robust z-score 1.44.
Silencing of ATP5PB #1 gave: G2 robust z-score 1.55.
ATP5PB #2 scored G2 robust z-score -0.921.
After knock-down of ATP5PB #3 the results were G2 robust z-score 0.291.
Against BNIP3 #1, the entry reads G2 robust z-score 0.599.
With knock-down of BNIP3 #2 the results were G2 robust z-score -0.402.
BNIP3 #3 gave G2 robust z-score -0.261.
BEX4 #1 showed G2 robust z-score 1.79.
BEX4 #2 scored G2 robust z-score -0.114.
For BEX4 #3 the deposit lists G2 robust z-score -0.191.
For OR4A47 #1, the values are G2 robust z-score 0.00219.
Depletion of OR4A47 #2 gave: G2 robust z-score 0.8.
Knock-down of OR4A47 #3 came out at: G2 robust z-score -0.0957.
